According to patent publication US20090169472A1, “METHODS AND COMPOSITIONS FOR TREATING IMMUNE DISORDERS” (CANCER RESEARCH TECHNOLOGY LTD., priority 2005, published 2009):
For at least one compound, name, drawing or mass did not settle the structure.

Key:
[1] = system: human plasmacytoid DC (pDC); experiment: Human pDC activation assay (IFNα and IL-6 in supernatant by sandwich ELISA); format: cell-based; conditions: polyUs 21-mer 10 μM as PEI complexes, RNA9.2DR 1 μM as LyoVec complexes, R848 1 μM
Method: Human pDC activation assays. R848 and RNA9.2DR complexed to LyoVec were from Invivogen. RNA oligonucleotides were purchased from Sigma Proligo. Human PMBCs were purified from normal human peripheral blood by Ficoll-Hypaque centrifugation. BDCA4^+ plasmacytoid DC were purified from total PBMC by positive selection using CD304^+ Microbeads and MiniMacs from MiltenyiBiotec. Oligonucleotides/PEI complexes, prepared as described above, were added to 1-2×10^5 pDC seeded in duplicate in 96-well-plates. Cells were cultured overnight in a final volume of 200 μl, supernatants were collected after 18-20 hr of culture and levels of IFNα and IL-6 were determined by sandwich ELISA.

RPMI 8226 cells = conditions: incubation of RPMI 8226 cells with the compound; cited from earlier work
Flt3L-DC = Flt3L-DC activation assay (cytokines in supernatant by sandwich ELISA); format: cell-based, mouse; conditions: ligands at concentrations of maximum cytokine induction, compared with polyUs-21/PEI

CCOCc1nc2c(N)nc3ccccc3c2n1CC(C)(C)O [R848, resiquimod, reference compound]
IFNα production by human pDC, comparison of TLR7/8 agonists [1]: induced equivalent levels of IFNα production by human pDC
IL-6 induction by human pDC [1]: good inducers of IL-6 by human pDC
chemokine and cytokine production by RPMI 8226 cells (RPMI 8226 cells): induces IL-8, IL-10, and IP-10 production
IL-6 induction by Flt3L-DC (Flt3L-DC): better inducers of IL-6 than polyUs-21
